For 1 substance, binding results are on record in doi:10.1101/2021.12.17.473173.

Protein sequences, listed by entry. Tags and fused reporters are not part of them.
UniProt Q9ULT8: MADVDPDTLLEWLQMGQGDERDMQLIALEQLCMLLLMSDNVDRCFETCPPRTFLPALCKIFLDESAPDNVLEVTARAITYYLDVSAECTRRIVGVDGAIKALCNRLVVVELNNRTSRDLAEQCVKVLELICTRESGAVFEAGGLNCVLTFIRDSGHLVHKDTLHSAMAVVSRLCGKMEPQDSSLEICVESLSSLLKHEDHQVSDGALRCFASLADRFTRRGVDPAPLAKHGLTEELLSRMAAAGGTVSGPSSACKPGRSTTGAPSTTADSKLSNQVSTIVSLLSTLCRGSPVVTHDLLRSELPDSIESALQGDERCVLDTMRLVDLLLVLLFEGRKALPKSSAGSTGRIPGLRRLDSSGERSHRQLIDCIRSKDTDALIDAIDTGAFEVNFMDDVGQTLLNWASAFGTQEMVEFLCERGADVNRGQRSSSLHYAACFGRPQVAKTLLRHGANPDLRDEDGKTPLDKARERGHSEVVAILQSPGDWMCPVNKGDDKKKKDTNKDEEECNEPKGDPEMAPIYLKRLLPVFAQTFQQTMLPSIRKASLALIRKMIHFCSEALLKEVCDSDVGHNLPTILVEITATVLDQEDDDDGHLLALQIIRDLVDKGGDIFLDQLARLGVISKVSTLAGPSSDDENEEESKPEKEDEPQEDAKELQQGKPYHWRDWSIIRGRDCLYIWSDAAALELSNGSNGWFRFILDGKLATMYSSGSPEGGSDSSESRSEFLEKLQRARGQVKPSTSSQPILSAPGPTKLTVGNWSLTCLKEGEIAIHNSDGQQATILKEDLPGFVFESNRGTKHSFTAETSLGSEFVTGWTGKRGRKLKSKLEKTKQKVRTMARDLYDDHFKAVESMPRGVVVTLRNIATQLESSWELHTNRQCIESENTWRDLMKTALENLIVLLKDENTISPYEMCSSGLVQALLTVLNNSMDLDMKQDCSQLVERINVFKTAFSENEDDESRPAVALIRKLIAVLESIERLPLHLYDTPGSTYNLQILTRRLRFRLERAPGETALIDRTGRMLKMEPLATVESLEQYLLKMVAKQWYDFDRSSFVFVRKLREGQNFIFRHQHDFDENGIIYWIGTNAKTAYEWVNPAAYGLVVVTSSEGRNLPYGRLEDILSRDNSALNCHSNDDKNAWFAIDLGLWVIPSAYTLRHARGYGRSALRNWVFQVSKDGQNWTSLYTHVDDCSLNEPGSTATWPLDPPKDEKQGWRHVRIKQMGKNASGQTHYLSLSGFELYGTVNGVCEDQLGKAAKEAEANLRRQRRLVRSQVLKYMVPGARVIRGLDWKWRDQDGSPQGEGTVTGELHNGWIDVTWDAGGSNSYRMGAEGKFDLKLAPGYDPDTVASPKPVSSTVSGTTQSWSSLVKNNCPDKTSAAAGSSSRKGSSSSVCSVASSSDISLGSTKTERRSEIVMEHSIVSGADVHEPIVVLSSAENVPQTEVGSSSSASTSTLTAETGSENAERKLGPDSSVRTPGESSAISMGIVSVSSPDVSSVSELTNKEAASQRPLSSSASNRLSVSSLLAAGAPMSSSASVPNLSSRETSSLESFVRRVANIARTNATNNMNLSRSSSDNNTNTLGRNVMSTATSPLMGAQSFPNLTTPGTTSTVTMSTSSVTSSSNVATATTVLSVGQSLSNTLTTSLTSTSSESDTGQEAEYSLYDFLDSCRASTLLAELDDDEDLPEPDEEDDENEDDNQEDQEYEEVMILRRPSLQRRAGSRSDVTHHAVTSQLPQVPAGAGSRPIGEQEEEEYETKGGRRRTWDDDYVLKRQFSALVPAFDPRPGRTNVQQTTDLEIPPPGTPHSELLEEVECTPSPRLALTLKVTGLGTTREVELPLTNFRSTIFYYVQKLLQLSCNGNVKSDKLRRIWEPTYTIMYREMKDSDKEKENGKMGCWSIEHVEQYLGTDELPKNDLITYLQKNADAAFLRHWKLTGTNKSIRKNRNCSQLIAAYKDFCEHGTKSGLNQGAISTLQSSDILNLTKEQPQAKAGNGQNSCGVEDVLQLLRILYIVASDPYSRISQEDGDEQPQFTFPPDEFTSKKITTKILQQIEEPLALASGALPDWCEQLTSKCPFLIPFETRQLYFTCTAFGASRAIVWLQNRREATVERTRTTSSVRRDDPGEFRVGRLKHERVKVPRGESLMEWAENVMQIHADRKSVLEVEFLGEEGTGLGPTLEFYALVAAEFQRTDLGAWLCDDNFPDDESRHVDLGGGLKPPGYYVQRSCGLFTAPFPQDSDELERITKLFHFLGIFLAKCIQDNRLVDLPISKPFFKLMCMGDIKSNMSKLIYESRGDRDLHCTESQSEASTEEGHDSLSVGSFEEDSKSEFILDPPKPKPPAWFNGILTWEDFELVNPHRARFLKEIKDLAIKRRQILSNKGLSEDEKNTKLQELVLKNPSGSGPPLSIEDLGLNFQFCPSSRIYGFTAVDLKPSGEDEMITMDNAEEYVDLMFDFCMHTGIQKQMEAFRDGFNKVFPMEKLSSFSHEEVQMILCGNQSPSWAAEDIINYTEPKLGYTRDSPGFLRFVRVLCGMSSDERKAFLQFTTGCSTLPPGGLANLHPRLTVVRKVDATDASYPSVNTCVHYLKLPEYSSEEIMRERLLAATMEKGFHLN
UniProt O43684: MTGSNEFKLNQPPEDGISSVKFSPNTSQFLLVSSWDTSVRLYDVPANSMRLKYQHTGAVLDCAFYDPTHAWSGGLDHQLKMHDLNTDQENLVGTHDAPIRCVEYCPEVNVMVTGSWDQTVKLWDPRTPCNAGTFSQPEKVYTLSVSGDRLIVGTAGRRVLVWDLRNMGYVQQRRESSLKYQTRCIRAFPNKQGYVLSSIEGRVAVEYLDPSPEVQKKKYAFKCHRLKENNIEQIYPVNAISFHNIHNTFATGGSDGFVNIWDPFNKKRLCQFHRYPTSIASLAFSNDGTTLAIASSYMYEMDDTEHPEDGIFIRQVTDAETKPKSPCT

No constants are given. Whether binding was seen depends on the method and setting. Binding seen in cells or lysates may run through a third protein. A yes stands for co-enrichment or nearness to the bait. Other partners may have been found.

The target of this assay is HECTD1 (endogenous) (human (endogenous in HEK293T)) (UniProt Q9ULT8). Nature of the assay: affinity purification with mass spectrometry.

As for “BUB3 (endogenous) (from UniProt O43684 1-328)”, the binding result is listed as “binds”.
